Measurements from the supplement of paper PMC10849652.
The other results are listed elsewhere or left out. Residues, ends and D or L forms follow the SMILES beside them. *: point of attachment. Cbz = O=C(OCc1ccccc1)*

Amino acid sequences for entries named in this document (tags omitted). A change or cut given only in a name is not applied to a line headed by its entry.
UniProt P51148: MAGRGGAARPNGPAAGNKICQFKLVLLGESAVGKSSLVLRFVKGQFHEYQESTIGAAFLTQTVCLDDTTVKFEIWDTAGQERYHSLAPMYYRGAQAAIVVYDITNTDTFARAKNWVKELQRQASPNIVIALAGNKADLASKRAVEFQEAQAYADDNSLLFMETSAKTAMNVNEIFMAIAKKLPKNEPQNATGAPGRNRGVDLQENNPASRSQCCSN
UniProt Q96EV2: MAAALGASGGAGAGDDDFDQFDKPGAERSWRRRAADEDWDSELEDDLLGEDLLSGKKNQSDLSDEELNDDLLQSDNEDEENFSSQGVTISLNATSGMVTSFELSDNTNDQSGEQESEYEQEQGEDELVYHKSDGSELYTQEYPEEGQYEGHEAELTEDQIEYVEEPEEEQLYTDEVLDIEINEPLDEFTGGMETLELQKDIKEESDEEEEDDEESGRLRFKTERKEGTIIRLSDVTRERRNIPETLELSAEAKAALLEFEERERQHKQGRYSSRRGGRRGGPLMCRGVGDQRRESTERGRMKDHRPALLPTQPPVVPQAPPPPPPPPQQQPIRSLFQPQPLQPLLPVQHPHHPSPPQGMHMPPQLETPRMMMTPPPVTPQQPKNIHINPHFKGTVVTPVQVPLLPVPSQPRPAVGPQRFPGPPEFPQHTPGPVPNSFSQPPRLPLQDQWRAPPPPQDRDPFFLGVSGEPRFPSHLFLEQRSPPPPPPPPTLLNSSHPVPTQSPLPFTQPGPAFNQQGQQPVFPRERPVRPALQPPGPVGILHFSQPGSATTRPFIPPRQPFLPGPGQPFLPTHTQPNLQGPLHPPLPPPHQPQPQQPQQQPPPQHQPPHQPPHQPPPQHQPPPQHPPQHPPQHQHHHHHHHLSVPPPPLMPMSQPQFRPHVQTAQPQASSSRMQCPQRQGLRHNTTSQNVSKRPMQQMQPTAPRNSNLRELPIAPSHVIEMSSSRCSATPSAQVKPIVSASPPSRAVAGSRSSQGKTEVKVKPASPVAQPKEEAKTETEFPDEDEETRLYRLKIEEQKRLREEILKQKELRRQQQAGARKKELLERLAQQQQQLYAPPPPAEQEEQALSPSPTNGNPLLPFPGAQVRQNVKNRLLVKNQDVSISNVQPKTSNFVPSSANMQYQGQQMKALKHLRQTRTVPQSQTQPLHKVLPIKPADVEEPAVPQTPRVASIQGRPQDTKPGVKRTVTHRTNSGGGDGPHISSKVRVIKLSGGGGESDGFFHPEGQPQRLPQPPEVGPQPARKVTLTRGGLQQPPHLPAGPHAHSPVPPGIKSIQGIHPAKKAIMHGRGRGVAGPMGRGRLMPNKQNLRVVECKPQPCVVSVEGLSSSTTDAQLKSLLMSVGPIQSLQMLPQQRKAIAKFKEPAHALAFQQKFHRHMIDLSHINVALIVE
UniProt Q9NW13: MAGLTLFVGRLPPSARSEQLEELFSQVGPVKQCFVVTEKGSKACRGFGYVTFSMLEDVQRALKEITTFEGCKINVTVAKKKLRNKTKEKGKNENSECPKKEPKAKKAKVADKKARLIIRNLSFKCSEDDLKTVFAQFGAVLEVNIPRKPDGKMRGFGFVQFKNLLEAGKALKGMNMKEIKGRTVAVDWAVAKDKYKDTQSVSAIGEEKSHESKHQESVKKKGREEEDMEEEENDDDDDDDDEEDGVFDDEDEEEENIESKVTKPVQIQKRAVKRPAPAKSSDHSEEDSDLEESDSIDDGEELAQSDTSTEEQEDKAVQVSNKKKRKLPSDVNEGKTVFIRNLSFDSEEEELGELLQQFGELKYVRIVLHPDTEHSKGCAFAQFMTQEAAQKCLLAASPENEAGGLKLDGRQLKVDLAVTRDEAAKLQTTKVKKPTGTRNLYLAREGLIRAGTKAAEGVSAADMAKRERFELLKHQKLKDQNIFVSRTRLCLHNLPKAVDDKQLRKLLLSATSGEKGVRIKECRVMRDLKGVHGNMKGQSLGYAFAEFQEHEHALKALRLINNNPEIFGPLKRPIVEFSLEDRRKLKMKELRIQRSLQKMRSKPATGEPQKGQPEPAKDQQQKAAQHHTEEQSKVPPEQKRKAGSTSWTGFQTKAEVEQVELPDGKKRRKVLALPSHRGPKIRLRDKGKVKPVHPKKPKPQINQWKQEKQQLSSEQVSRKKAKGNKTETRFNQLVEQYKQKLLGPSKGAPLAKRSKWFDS
UniProt P52306: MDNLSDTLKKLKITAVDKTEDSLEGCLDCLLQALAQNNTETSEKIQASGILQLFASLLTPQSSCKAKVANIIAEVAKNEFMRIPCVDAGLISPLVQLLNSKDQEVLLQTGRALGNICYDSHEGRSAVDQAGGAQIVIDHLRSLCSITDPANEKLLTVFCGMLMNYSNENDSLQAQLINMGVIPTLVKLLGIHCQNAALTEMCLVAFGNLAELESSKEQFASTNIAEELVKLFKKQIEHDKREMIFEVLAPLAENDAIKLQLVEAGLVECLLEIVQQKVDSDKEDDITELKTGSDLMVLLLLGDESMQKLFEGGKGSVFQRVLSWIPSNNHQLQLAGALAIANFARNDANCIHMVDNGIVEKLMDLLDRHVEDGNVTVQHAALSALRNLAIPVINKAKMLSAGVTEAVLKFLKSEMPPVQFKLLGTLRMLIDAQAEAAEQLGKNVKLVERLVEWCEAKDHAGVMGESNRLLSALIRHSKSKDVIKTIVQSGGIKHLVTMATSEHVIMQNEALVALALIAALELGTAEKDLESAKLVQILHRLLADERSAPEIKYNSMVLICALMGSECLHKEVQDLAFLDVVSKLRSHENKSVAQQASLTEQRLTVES
UniProt Q06609, whole entry, looked up: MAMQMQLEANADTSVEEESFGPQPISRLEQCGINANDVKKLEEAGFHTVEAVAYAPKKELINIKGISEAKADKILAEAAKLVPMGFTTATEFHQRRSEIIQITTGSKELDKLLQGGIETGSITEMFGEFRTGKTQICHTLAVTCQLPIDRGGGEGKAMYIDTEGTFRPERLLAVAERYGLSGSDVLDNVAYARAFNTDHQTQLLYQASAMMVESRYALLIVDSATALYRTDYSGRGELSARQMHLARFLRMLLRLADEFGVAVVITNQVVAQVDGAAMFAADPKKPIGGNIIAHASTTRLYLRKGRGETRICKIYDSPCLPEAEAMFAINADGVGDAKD
UniProt Q8WZA2: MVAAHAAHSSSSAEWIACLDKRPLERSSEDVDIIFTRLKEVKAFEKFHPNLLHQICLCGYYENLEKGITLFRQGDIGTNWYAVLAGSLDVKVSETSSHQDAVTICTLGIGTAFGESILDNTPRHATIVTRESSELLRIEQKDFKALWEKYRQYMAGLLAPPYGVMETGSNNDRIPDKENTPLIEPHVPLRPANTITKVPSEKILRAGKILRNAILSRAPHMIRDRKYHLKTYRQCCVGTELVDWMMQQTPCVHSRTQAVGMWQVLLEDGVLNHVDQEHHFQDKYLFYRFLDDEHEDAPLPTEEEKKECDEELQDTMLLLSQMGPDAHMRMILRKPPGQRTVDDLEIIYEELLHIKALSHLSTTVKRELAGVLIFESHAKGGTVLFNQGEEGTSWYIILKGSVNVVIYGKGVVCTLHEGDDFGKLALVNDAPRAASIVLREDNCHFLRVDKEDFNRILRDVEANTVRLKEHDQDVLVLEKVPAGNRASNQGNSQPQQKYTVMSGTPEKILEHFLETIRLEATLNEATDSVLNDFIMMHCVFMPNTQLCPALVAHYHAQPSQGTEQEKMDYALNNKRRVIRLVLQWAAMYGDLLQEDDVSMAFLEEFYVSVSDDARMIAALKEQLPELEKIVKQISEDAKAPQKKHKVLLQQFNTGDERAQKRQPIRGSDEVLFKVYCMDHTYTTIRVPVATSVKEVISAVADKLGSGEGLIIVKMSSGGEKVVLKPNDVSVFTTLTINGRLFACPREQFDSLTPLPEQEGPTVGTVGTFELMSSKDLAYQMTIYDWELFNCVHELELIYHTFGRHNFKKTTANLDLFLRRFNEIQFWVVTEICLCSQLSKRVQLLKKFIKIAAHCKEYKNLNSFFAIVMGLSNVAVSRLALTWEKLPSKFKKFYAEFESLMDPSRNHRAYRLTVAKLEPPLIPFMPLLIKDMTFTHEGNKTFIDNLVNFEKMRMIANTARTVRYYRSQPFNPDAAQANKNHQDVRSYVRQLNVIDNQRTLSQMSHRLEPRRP
UniProt Q9P0K7: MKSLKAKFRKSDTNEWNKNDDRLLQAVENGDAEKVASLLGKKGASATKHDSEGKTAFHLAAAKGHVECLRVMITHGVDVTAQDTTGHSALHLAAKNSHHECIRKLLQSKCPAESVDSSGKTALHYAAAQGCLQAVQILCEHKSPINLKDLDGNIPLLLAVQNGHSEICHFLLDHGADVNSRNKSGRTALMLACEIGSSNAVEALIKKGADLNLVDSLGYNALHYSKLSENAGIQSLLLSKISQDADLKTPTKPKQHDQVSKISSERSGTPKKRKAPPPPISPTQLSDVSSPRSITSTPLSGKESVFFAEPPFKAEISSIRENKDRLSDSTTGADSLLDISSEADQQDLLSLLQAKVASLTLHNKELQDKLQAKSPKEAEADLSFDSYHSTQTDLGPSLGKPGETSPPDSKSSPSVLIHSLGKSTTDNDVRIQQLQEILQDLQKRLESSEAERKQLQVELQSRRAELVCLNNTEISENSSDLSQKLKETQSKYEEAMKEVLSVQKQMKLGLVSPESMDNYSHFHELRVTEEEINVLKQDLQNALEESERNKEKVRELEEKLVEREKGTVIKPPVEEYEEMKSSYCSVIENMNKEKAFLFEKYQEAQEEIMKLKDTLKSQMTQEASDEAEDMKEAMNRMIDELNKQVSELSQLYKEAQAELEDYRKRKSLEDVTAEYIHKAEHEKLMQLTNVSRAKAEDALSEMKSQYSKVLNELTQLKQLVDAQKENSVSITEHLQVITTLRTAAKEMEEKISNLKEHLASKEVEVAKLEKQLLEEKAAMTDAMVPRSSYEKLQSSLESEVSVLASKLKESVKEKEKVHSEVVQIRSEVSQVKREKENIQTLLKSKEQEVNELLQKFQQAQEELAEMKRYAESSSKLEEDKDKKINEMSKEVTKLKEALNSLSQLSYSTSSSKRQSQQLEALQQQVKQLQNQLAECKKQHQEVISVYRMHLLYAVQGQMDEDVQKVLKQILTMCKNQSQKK
UniProt Q8TBN0: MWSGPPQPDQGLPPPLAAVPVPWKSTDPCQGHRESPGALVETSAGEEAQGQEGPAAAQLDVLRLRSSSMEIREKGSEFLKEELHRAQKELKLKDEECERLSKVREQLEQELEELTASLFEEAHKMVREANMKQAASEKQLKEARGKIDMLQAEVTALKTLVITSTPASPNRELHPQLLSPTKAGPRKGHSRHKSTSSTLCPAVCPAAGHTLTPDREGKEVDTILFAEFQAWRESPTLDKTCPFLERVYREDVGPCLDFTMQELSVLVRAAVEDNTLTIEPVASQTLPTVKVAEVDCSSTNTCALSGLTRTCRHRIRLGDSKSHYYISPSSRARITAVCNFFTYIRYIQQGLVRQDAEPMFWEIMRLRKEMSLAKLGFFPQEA
UniProt Q15771: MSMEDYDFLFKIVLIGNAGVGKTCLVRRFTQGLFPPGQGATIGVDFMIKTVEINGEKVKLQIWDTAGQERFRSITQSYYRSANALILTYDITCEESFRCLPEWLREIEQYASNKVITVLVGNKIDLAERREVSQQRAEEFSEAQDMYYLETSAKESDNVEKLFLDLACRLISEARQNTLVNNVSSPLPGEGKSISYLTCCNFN

Tests used:
Assay in all cases: log2 fold change, soluble protein after heating vs DMSO (PISA); higher = thermal stabilisation; K562 cells, 10 uM, 30 min; active = over 0.2 and 3.5 SD of the protein, either way, in both replicates (recomputed)
[1] = compound: C#Cc1cccc(Nc2ncnc3cc(OCCOC)c(OCCOC)cc23)c1 [erlotinib]
In short: (§1)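 Soluble protein was defined as the supernatant after 21,000xg for 90 min. It came from K562 cells at 2×10^6 cells/mL given 10 μM compound for 30 min, heated in aliquots for 3 min across 48°C-58°C, pooled, and extracted in PBS with 0.5% NP-40 at 4°C, and was quantified by TMTpro 16plex LC-MS/MS with equalised channel sums. Thermal stability against control samples, from duplicates, is reported as log2 fold change.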

[2] = compound: C/C(=N\NC(=O)C1=CC(=CC=C1)S(=O)(=O)N2CCOCC2)/C3=C(C=CC(=C3)Cl)O
In short: as §1

[3] = compound: C1=CC(=C(C=C1Cl)C2=NC3=NC=CN=C3C(=N2)NC4=CC=NC=C4)F
In short: as §1

[4] = compound: C1=CC(=CC=C1C2=NC3=C(N2)C=C(C=C3)C(=O)N)OC4=CC=C(C=C4)Cl
In short: as §1

[5] = compound: C1=CC2=C(C=CC(=C2)/C=C\3/C(=O)NC(=NCC4=CC=CS4)S3)N=C1
In short: as §1

[6] = compound: C1=CC2=NC=CN=C2C=C1/C=C/3\C(=O)NC(=O)S3
In short: as §1

[7] = compound: C1=CC=C(C=C1)C2=NC(=C(N2)C3=CC=NC=C3)C4=CC(=C(C=C4)Cl)O
In short: as §1

[8] = compound: C1=CC=C2C(=C1)C3=NNC4=CC=CC(=C43)C2=O
In short: as §1

[9] = compound: C1CCN(C1)C(=O)NC2=CC=CC(=C2)NC3=NC=C(C(=N3)NCCC4=CN=CN4)Br
In short: as §1

[10] = compound: C1CN(CCC1(CC2=CC=C(C=C2)Cl)N)C3=NC=NC4=C3C=CN4
In short: as §1

[11] = compound: C1COCCN1CCN2C3=CC=CC=C3N=C2NC(=O)C4=CC(=CC=C4)[N+](=O)[O-] [IRAK-1-4 Inhibitor I]
In short: as §1

[12] = compound: C=CC(=O)N1CCC[C@@H](n2nc(-c3ccc(Oc4ccccc4)cc3)c3c(N)ncnc32)C1 [ibrutinib]
In short: as §1

[13] = compound: CC(=O)c1cnc2ccc(-c3cc(Cl)c(O)c(Cl)c3)nc2c1N[C@H]1CC[C@H](CN(C)C)CC1
In short: as §1

[14] = compound: CC(C)(C)Cn1c(N)nc2ccc(-c3[nH]c(C(C)(C)C)nc3-c3ccc(F)cc3)nc21 [ralimetinib]
In short: as §1

[15] = compound: CC(C)(O)CC(=O)NCCn1ccc2ncnc(Nc3ccc(Oc4cccc(C(F)(F)F)c4)c(Cl)c3)c21
In short: as §1

[16] = compound: CC(C)C1=C2N=C(C=C(N2N=C1)NCC3=CC=CC=C3)NCCCCCCN
In short: as §1

[17] = compound: CC(C)C[C@@H](C=O)NC(=O)[C@H](CC(C)C)NC(=O)[C@H](CC(C)C)NC(=O)OCc1ccccc1
In short: as §1

[18] = compound: CC(C)N(C[C@H]1O[C@@H](n2cnc3c(N)ncnc32)[C@H](O)[C@@H]1O)[C@H]1C[C@@H](CCc2nc3cc(C(C)(C)C)ccc3[nH]2)C1 [pinometostat]
In short: as §1

[19] = compound: CC1=C(C2=C(C=C1)C(=O)C3=CC=CC=C3N2CCCN)C
In short: as §1

[20] = compound: CC1=C(C(CC(=O)N1)C2=CC=C(C=C2)C(F)(F)F)C(=O)NC3=C(C=C4C(=C3)C=NN4)F
In short: as §1

Measured: log2 fold change

RAB5C isoform 2 (UniProt P51148)
inactive: [1] 0 | [2] 0.042 | [3] 0.066 | [4] 0.015 | [5] -0.083 | [6] 0.014 | [7] 0.012 | [8] 0.015 | [9] -0.003 | [10] 0.043 | [11] 0.015 | [12] 0.017 | [13] 0.039 | [14] 0.027 | [15] -0.012 | [16] 0.064 | [17] -0.042 | [18] -0.028 | [19] -0.032

RBM33 (UniProt Q96EV2)
active: [19] -0.282
inactive: [1] 0.017 | [2] 0.04 | [3] -0.022 | [4] -0.011 | [5] 0 | [6] 0.01 | [7] 0.001 | [8] -0.114 | [9] 0.034 | [10] 0.038 | [11] -0.058 | [12] 0.024 | [13] -0.063 | [14] 0.014 | [15] 0.046 | [16] -0.018 | [17] -0.01 | [18] -0.01

RACK1 (UniProt D6RHH4)
inactive: [1] 0.021 | [2] -0.206 | [3] -0.265 | [4] 0.156 | [5] 0.415 | [6] -0.262 | [8] -0.123 | [9] 0.078 | [10] 0.038 | [12] 0.164 | [13] -0.122 | [15] 0.16 | [16] -0.038 | [20] 0.114 | [19] -0.009

RBM28 (UniProt Q9NW13)
inactive: [1] 0.073 | [2] -0.052 | [3] -0.185 | [4] 0.142 | [5] -0.098 | [6] 0.248 | [7] 0.054 | [8] -0.057 | [12] -0.281 | [13] -0.123 | [14] 0 | [15] 0.23 | [16] 0.05 | [17] 0.202

RAVER1 (UniProt E9PAU2)
inactive: [1] 0.218 | [2] 0.403 | [3] 0.042 | [4] 0.009 | [5] 0.002 | [6] -0.06 | [7] 0.257 | [8] -0.084 | [9] -0.05 | [10] -0.011 | [11] -0.062 | [12] 0.033 | [13] -0.308 | [14] 0.082 | [15] -0.263 | [16] -0.409 | [17] -0.042 | [18] 0.052 | [19] -0.694

RAP1GDS1 isoform 5 (UniProt P52306)
inactive: [1] 0.019 | [2] -0.012 | [3] -0.021 | [4] -0.013 | [5] 0.027 | [6] 0.106 | [7] -0.016 | [8] -0.038 | [9] -0.023 | [10] -0.077 | [11] -0.044 | [12] -0.098 | [13] 0.04 | [14] 0.005 | [15] -0.114 | [17] -0.005 | [18] 0.067 | [19] 0.008
active: [16] -0.277

RAP1B (UniProt F5GZG1)
inactive: [1] 0.156 | [2] -0.007 | [3] 0.055 | [4] -0.016 | [5] 0.077 | [6] 0.024 | [8] -0.031 | [9] 0.131 | [10] 0.072 | [11] 0 | [12] 0.059 | [13] -0.157 | [15] 0.018 | [16] 0.039 | [18] -0.01 | [20] -0.187 | [19] 0.141

RAD51 (UniProt Q06609)
inactive: [1] 0.29 | [2] 0.06 | [3] 0.044 | [4] 0.032 | [5] 0.067 | [6] 0.017 | [7] -0.025 | [8] -0.032 | [9] -0.014 | [10] 0.013 | [11] 0.017 | [12] 0.013 | [13] -0.061 | [14] -0.074 | [15] -0.059 | [16] -0.016 | [17] 0.048 | [18] -0.024 | [19] 0.102

RAPGEF4 (UniProt Q8WZA2)
inactive: [1] 0.271 | [3] 0.057 | [4] 0.053 | [5] 0.19 | [6] 0.029 | [8] -0.014 | [9] -0.038 | [10] 0.18 | [11] -0.184 | [12] -0.025 | [13] -0.022 | [15] 0.065 | [16] 0.089 | [18] -0.096 | [19] 0.109
active: [2] -0.636

RAI14 isoform 2 (UniProt Q9P0K7)
inactive: [1] 0.076 | [2] -0.068 | [3] -0.029 | [4] 0.02 | [5] 0.072 | [6] 0.06 | [7] 0.041 | [8] -0.106 | [9] 0.04 | [10] 0.03 | [12] -0.141 | [13] -0.193 | [14] 0.095 | [15] -0.016 | [16] -0.056 | [17] 0.188 | [20] 0.081 | [19] -0.16

RAB3IL1 (UniProt Q8TBN0)
inactive: [1] -0.007 | [2] -0.007 | [3] 0.057 | [4] 0.005 | [5] 0.019 | [6] 0.019 | [7] -0.02 | [8] -0.039 | [9] -0.004 | [10] -0.013 | [11] 0.018 | [12] -0.009 | [13] 0.018 | [14] 0.064 | [15] -0.036 | [16] -0.014 | [17] 0.057 | [18] -0.029 | [19] 0.037

RAB30 (UniProt Q15771)
inactive: [1] 0.057 | [2] 0.165 | [3] -0.029 | [4] -0.028 | [5] -0.033 | [6] 0.035 | [7] 0.036 | [8] -0.179 | [11] -0.051 | [12] 0.071 | [13] 0.085 | [14] 0.057 | [15] 0.065 | [16] -0.107 | [17] 0.017 | [18] -0.061 | [20] -0.03
